We go through one molecule from patent US20240301050A1.

Results are given in words; binding and its absence hold for the method and conditions named. Some results given as binding are weak or reduced against the parent protein; the word gives no strength.

The experiment concerns the target T1, human Lrig-1 protein expressed on the surface of T cells (human) (UniProt Q96JA1).
T1 sequence: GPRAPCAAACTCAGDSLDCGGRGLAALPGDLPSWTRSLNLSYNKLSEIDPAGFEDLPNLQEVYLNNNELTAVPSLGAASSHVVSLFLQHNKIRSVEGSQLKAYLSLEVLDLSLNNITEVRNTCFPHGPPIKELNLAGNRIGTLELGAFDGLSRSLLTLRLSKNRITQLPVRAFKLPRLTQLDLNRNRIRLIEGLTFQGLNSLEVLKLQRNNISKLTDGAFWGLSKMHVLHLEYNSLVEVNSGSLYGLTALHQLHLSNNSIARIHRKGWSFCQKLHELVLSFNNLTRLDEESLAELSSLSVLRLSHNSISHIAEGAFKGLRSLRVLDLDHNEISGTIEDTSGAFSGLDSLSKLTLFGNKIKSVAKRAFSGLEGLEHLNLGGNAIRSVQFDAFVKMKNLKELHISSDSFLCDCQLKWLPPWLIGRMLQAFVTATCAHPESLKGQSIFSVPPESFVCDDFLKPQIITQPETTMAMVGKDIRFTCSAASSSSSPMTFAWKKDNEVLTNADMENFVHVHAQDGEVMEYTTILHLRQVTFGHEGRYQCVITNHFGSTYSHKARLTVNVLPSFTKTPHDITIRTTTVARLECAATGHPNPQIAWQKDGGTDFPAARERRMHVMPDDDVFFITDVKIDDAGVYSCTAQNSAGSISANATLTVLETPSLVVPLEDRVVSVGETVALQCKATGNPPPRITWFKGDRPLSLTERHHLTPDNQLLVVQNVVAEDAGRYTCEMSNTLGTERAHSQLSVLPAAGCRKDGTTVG
Nature of the experiment: selection from a human scFv library on T cells transfected with Lrig-1 (SEQ ID NO: 2).

B1: GTC310-01 (light and heavy chain amino acid sequences selected from the Human scFv library) (scFv, V domains shown)
VH: EVQLLESGGGLVQPGGSLRLSCAASGFTFSNYAMSWVRQAPGKGLEWVSVISHGGGSTYYADSVKGRFTISRDNSKNTLYLQMNSLRAEDTAVYYCARVISNCHLGVCYYSNGMDVWGQGTLVTVSS
VL: QLVLTQPPSVSAAPGQRVSISCSGSSSNIGDNYVSWYQQVPGSAPKLLIYDNNKRPSGIPDRFSASKSGTSATLGITGLQTGDEADYYCATWDGSLSAGRVFGGGTKLTVL
For the molecule B1, the binding result is reported as “binds”.
